According to the supplement of paper PMC10338343:
± gives the standard deviation. Only a part is listed here, and it is no random draw. Many entries were measured with a wide error.

Test system: MILI (PIWIL2) piRISC loaded with L1MC piRNA (26 nt)
Experiment: pre-steady-state target cleavage rate (min^-1); MIWI and MILI are mouse PIWI proteins and EfPiwi is from a freshwater sponge; tags in brackets are library labels; higher = faster piRNA-guided slicing of the target
Settings: guide: L1MC piRNA 5'p-UAACUAAAUACUAUGCAAGCUGUAGG; auxiliary factor: 500 nM mouse GTSF1
Protocol: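 Cleave-'n-Seq: a library of target RNAs (target site embedded in constant flanks, ACAGCATTCCGCGTTAGTGATATCCG... 5' flank; DNA-blocked outside the site) at 0.1 nM was incubated with 1 nM active mouse MILI or MIWI piRISC (synthetic 5'-monophosphorylated piRNA guide) with or without 500 nM mouse GTSF1 at 33 °C for 1 min to 16 h. Uncleaved targets were sequenced and normalised to non-target controls, and the pooled three trials were fitted to a burst-and-steady-state model to give the pre-steady-state cleavage rate (min^-1; k3 is constrained to at most 1e-4). Sequence is the target site only; target names encode pairing extent (gX:gY) and contiguous / 1-mismatch / 2-mismatch / bulge geometry. Fits with R² ≤ 0 are excluded.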

Sequence | pre-steady-state target cleavage rate
UCCUGGAUGUCGAAGCAUAGUAUUUAGGUA | 0.00926 ± 0.0047
UCCUGGUACAGCUUGCAUAGUAUUUAGUAA | 0.283 ± 0.036
UCCUGGAUGUCGAUGCAUAGAAUAUAGUUA | 0.000556 ± 0.013
UCCUGGAUGAGGAAGCAUAGUAUUUAGUAA | 0.0509 ± 0.013
UCCUGGAUCAGCUAGCAUUGUAUUUAGUUA | 0.107 ± 0.014
UCCUGGAUCAGCUAUGCAUAGUAUUUAGUUA | 0.281 ± 0.019
UCCUGGAUGUCCUUGCAUAGUAUUUAGUGA | 0.0966 ± 0.018
UCCUGGAACUGCUUGCAUAGUAAUUAGUUA | 0.159 ± 0.012
UCCUGGAUGUCGUUGCAGUAGUAUUUAGUUA | 0.000701 ± 0.013
UCCUGGAUGUCGAACCUUAGUUUUUAGUUA | 0.000308 ± 0.02
UCCUGGAUGAGCUUGCAUCAGUAUUUAGUUA | 0.00196 ± 0.0062
UCCUGGAUGUCGAAGCAUAGAAUUUAGUUA | 0.00179 ± 0.0038
UCCUCCUAGAGCUUGCAUAGUAUAUAGUUA | 0.249 ± 0.029
UCCUGGAUGUCGAAGCAUAGUAUAUAGUUA | 0.0508 ± 0.015
UCCUCCUACAGCUUGCAAAGUAAUUAGUUA | 0.116 ± 0.012
UCCUGGAUGAGCUUGCAUUAGUAUUUAGUUA | 0.00494 ± 0.0045

Same assay, conditions: guide: L1MC piRNA 5'p-UAACUAAAUACUAUGCAAGCUGUAGG; auxiliary factor: none (no GTSF1)

Sequence | pre-steady-state target cleavage rate
UCCUGGAUGUCGAAGCAUAGUAUUUAGGUA | 0.00144 ± 0.0035
UCCUGGAUGUCGAAGCAAAGUAUUUAGAUA | 0.00028 ± 0.016
UCCUGGAUGUCGAAGCAAAGUUUUUAGUUA | 0.000567 ± 0.0079
UCCUGGAACAGCUACCAUAGUAUUUUCAAA | 0.000447 ± 0.013
UCCUGGAUGUCGAUGCAUAGAAUAUAGUUA | 0.000476 ± 0.011
UCCUGGAUGAGGAAGCAUAGUAUUUAGUAA | 0.00237 ± 0.0037
UCCUGGUACAGCUUGCUAUCAUAAAUCAAA [g15:g24:cont:t1A] | 0.000325 ± 0.019
UCCUCCUACAGCUUGCAUAGAAAUUAGUUA | 0.0015 ± 0.003
UCCUGGAUCAGCUAGCAUUGUAUUUAGUUA | 0.00287 ± 0.0024
UCCUGGAUGUCCUUGCAUAGUAUUUAGUGA | 0.00382 ± 0.0024
UCCUGGAACUGCUUGCAUAGUAAUUAGUUA | 0.00625 ± 0.0021
UCCUGGAUGUCGUUGCAGUAGUAUUUAGUUA | 0.000784 ± 0.011
UCCUGGAACAGCUUCGAUAGUAUUUUCAAA | 0.000398 ± 0.011
UCCUGGAUGUCGAACCUUAGUUUUUAGUUA | 0.000109 ± 0.015
UCCUGGAUGAGCUUGCAUCAGUAUUUAGUUA | 0.000735 ± 0.009
UCCUGGAUGUCGAAGCAUAGAAUUUAGUUA | 0.000812 ± 0.005
UCCUCCUAGAGCUUGCAUAGUAUAUAGUUA | 0.00315 ± 0.0025
UCCUGGAUGUCGAUGCAUAUAUUUAGUUA | 0.000665 ± 0.0067
UCCUGGAUGUCGAAGCAUAGUAUAUAGUUA | 0.00342 ± 0.0022
UCCUCCUACAGCUUGCAAAGUAAUUAGUUA | 0.00331 ± 0.0024
UCCUGGAUGAGCUUGGAUACUAUUUAGUUA | 0.0016 ± 0.0042
UCCUGGAACAGGAAGCAUAGUAUUUUCAAA | 0.000435 ± 0.0097
UCCUGGAUGAGCUUGCAUAGUAUUAACAAA | 0.00075 ± 0.0071
UCCUGGAUGAGCUUGCAUUAGUAUUUAGUUA | 0.000314 ± 0.0096
